{"source": "paper PMC9765026", "molecular_target": "PBP1A-FLAG (A. baumannii PBP1A with a C-terminal Flag fusion) (A. baumannii)", "assay": "co-IP; A. baumannii cells in mid-logarithmic growth cross-linked in vivo with 25 mM DSP (1 h, 37°C), quenched with glycine, lysed and solubilised (Triton X-100); FLAG-tagged bait precipitated overnight at 4°C on anti-FLAG M2 affinity resin, washed 4 times with RIPA buffer; partners detected by Western blot with specific antisera", "note": "These are yes or no findings as the source states them, for the method shown. Binding seen in cells or lysates may run through a third protein."}
{"binder": "PBP2 (A. baumannii, endogenous) (enzyme, UniProt D0C8Z9 1-672) MKQHFPLKDIQQEKRIYRGRIFFAVGLVIICLLVLASRYAYLQIFHYDEFSTASDKNRIRLQPLPPARGYIYDRNGVLLADNYPVFTATLSKADVENVDTVIEQLQPILELTQEDVDRFKSRIKTARKTERVAIKLNLTETNIAKFSEVKYKFPGVRIETQMTRYYPHGDLFAHVIGYVGRINDKELKSIDKDLYAGTNLIGKIGVEKSYEDLLHGTPGYESVEADAHSNILRHLGRKDPTRGNDLYLSLDYGLQVVASQQLAGRRGAIVAIDPRTGEILALVSSPSFNPNLFVTGINHKDYSSLRDNIDQPLYNRAVQGVYPPGSTIKPMEAMGGLHYGIVDWATAISDPGYFHLPGDSHKFRDWKKTGHGIVNMHKAIIMSCDTYFYILANQMGIDQMNQWMRQFGFGQKTGVDLPSESEGLYPNPEWKMRTRKSKWMKGETISVSIGQGAFTATPLQLAMATAITANHGSHVVPHVLRATHGAKPFTVRNAPDGKINFNGTDEDWVKMREAMIDVIQSGTGRGIRTPLYQIAGKTGTAQVKSIAQGKRYNEAALSERQLDHGLFVGFAPADKPEIAIAVIWENGRHGGSAAQLAKPVFDYWLLTRKKNPIRPANHQVNGGLMTAGIKPGELPSGNESASSTPATSAPTSAAASTPQATPTRPATNEVDE", "values": [{"measurement": "binding", "value": "no binding"}]}
